The other results are listed elsewhere or left out. Further columns of the screen follow, without active or inactive calls. Compounds called inactive in the main read-out are mostly missing here. Words in brackets tell the shape of the fitted curve; partial curves, single points and poor fits give uncertain potencies.

The assay is described as follows: qHTS Assay for Lipid Storage Modulators in Drosophila S3 Cells.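 For cell number change: cells counted by Cell Tracker Red CMTPX staining in the red channel.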 The following applies: BODIPY lipid droplet fluorescence, 18-24 h; for cell number change: measured here: cell count max response, cells fed with added oleic acid. The essentials:
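Drosophila S3 cells loaded with oleic acid (400 uM, as added) and compounds at several concentrations; lipid droplets imaged by 488-nm laser-scanning cytometry, 500–530 nm intensity and object ratio to cell channel. Percent activity normalized to 20 uM Triacsin C.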
For orientation: In qHTS, concentration-response curves come from the screen itself.

[1] abbreviates: measured here: lipid fluorescence (Fed channel) AC50, cells fed with added oleic acid.
The mark [2] stands for this setting: measured here: cell number channel AC50, cells fed with added oleic acid.

In general, AC50 refers to the concentration giving half of the maximal activity seen. Read a high AC50 as activity only at high concentration. `CCOC(=O)C1CCN(C(=O)Nc2ccc(Cl)cc2Cl)CC1`: the cell number change is -24.2%. For the same compound, the AC50 under setting [1] is 23.1 µM [rising, partial curve].

For the compound `O=C(CCC1N=C2c3ccccc3N=C(SCc3ccccc3Cl)N2C1=O)NCc1ccco1` (centres undefined), the half-maximal activity concentration (AC50) is 2.06 µM [rising, single point] under setting [2] and 0.259 µM [rising, partial curve, poor fit] under setting [1].

With `Cc1ccc(C2(C)NC(=O)N(CC(=O)Nc3ccccc3C(=O)NC3CCCC3)C2=O)cc1` (centres undefined), the cell number change is 12.8%. Further, the AC50 under setting [1] is 0.82 µM [falling, single point].

Take `COc1cc(CN2CCCCCC2)cc([N+](=O)[O-])c1O`: the cell number change came out at 6.2%. Further, the AC50 under setting [1] is 29.1 µM [rising, single point].

In the case of `Cc1scc(C(=O)NNC(=S)NCC(C)C)c1C`, the cell number change stood at 19.5%. For the same compound, under setting [1], the half-maximal activity concentration (AC50) was 5.8 µM [rising, partial curve].

For the compound `Cc1ccccc1-c1nc(CS(=O)(=O)CC(=O)N2CCN(C)CC2)c(C)o1`, the cell number change is 32.4%. Moreover, the AC50 under setting [2] is 29.1 µM [rising, single point]. Further, the AC50 under setting [1] is 23.1 µM [rising, single point].

As for `CCN(CC)c1ccc(NC(=O)CN2CCN(c3ccc(F)cc3)CC2)cc1`, the cell number change came to 4.51%.

As to `CC1CCCC(NC(=O)CCCn2c(=O)[nH]c3cc(Cl)ccc3c2=O)C1C` (centres undefined), the cell number change was -35%. Also, the AC50 under setting [2] was 29.1 µM [falling, single point]. Further, the AC50 under setting [1] was 1.3 µM [falling, full curve].

For `COc1ccc(CNC(=O)CN(C(=O)CCC(=O)Nc2nccs2)c2cccc(C)c2)cc1`, the cell number change worked out at 148%. In addition, the AC50 under setting [2] was 25.9 µM [rising, single point]. Moreover, the AC50 under setting [1] is 3.66 µM [rising, partial curve, poor fit].

Turning to `O=C(Nc1ccc(Sc2ccc(Br)cc2)cc1)c1ccco1`, the cell number change was -11.1%. Besides, the AC50 under setting [2] is 6.51 µM [falling, single point]. For the same compound, under setting [1], the AC50 was 6.51 µM [falling, single point].

Take `O=C(CCl)N(c1ccccc1)C1CCS(=O)(=O)C1` (centres undefined): the cell number change was -21.1%. Further, the AC50 under setting [1] is 20.6 µM [falling, single point].

With `CN(C(=O)COC(=O)c1nc(Cl)ccc1Cl)C1CCS(=O)(=O)C1` (centres undefined), the cell number change was found to be 7.32%.

Turning to `COc1ccc(C2C=C(c3ccc(Br)s3)Nc3ncnn32)cc1OC` (centres undefined), the AC50 reads like this: under setting [2], 2.91 µM [rising, partial curve]; under setting [1], 0.231 µM [rising, full curve].

With `O=C1NN(c2ccccc2)C(=O)/C1=C\c1ccc2c(c1)OCO2`, the cell number change was 2.65%. Also, the AC50 under setting [1] was 2.91 µM [rising, single point].

Turning to `COc1ccc(S(=O)(=O)NCCOc2ccccc2)cc1F`, the cell number change worked out at 30%. The AC50 under setting [1] was 6.51 µM [rising, full curve].

In the case of `O=C(CSc1ccc(Cl)cc1)OCC(=O)N1CCN(c2ccccc2)CC1`, the cell number change was determined as 3.94%. Besides, the AC50 under setting [1] is 7.31 µM [falling, partial curve, poor fit].

(Values after PubChem BioAssay AID2685 (National Center for Advancing Translational Sciences (NCATS), 2010).)
